Numbering of substitutions follows the chain as printed. These are yes or no findings as the source states them, for the method shown. In cells and extracts the contact can be indirect. For some of these results: Binding can be weak; no strength is given. Where a sequence is shown, tags or fusion partners need not be part of it.
Columns and labels:
[1] = target: T1, GST-Abp1 SH3 domain fusion protein (Drosophila melanogaster) (UniProt Q9VU84); experiment: pull-down; immobilized, purified, recombinant GST fusion proteins incubated with fly head extracts (10 mM HEPES pH 7.4, 1 mM EGTA, 0.1 mM MgCl2, 150 mM NaCl, protease inhibitor, 1% Triton X-100; 16,000xg supernatant); immunoblot for WASP and Scar; only the target purified
T1 sequence: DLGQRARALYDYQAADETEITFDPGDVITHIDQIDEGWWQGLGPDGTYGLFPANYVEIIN

[2] = target: T2, GST-Abp1 SH3 P523A (Drosophila melanogaster) (UniProt Q9VU84); experiment: as above
T2 sequence: T1 sequence with P52A

| Substance | binding [1] | binding [2] |
| --- | --- | --- |
| Scar | binds | no binding |
| WASP | binds | no binding |

From paper PMC4026379
